{"source": "paper PMC9337661", "binders": {"B1": {"name": "Keratin, type I cytoskeletal 9 (protein, UniProt P35527 1-623)", "chain": "MSCRQFSSSYLSRSGGGGGGGLGSGGSIRSSYSRFSSSGGGGGGGRFSSSSGYGGGSSRVCGRGGGGSFGYSYGGGSGGGFSASSLGGGFGGGSRGFGGASGGGYSSSGGFGGGFGGGSGGGFGGGYGSGFGGFGGFGGGAGGGDGGILTANEKSTMQELNSRLASYLDKVQALEEANNDLENKIQDWYDKKGPAAIQKNYSPYYNTIDDLKDQIVDLTVGNNKTLLDIDNTRMTLDDFRIKFEMEQNLRQGVDADINGLRQVLDNLTMEKSDLEMQYETLQEELMALKKNHKEEMSQLTGQNSGDVNVEINVAPGKDLTKTLNDMRQEYEQLIAKNRKDIENQYETQITQIEHEVSSSGQEVQSSAKEVTQLRHGVQELEIELQSQLSKKAALEKSLEDTKNRYCGQLQMIQEQISNLEAQITDVRQEIECQNQEYSLLLSIKMRLEKEIETYHNLLEGGQEDFESSGAGKIGLGGRGGSGGSYGRGSRGGSGGSYGGGGSGGGYGGGSGSRGGSGGSYGGGSGSGGGSGGGYGGGSGGGHSGGSGGGHSGGSGGNYGGGSGSGGGSGGGYGGGSGSRGGSGGSHGGGSGFGGESGGSYGGGEEASGSGGGYGGGSGKSSHS"}}, "key": {"[1]": {"target": "SssP1-NR_(1-1298) (Streptococcus suis strain CZ130302)", "experiment": "affinity purification with mass spectrometry; His pull-down (Pierce kit): 500 ug His protein on Ni beads, 1 mg HBMEC cell total protein, shaking overnight at 4°C; beads alone as blank control; Q Exactive mass spectrometer; only the target purified"}, "[2]": {"target": "SssP1-NR_(1225-2214) (Streptococcus suis strain CZ130302)", "experiment": "affinity purification with mass spectrometry; His pull-down (Pierce kit): 500 ug His protein on Ni beads, 1 mg HBMEC cell total protein, shaking overnight at 4°C; beads alone as blank control; Q Exactive mass spectrometer; only the target purified"}}, "note": "These are yes or no findings as the source states them, for the method shown. Binding seen in cells or lysates may run through a third protein. A yes stands for co-enrichment or nearness to the bait. Other partners may have been found."}
{"binder": "B1", "values": [{"measurement": "binding", "setting": "[1]", "value": "binds"}, {"measurement": "binding", "setting": "[2]", "value": "binds"}]}
